Results as given in paper doi:10.1101/346296.
These are yes or no findings as the source states them, for the method shown. Some binding calls cover weakened binding; strength is not graded here.

Amino acid sequences for entries named in this document (tags omitted). A change or cut given only in a name is not applied to a line headed by its entry.
UniProt P11978: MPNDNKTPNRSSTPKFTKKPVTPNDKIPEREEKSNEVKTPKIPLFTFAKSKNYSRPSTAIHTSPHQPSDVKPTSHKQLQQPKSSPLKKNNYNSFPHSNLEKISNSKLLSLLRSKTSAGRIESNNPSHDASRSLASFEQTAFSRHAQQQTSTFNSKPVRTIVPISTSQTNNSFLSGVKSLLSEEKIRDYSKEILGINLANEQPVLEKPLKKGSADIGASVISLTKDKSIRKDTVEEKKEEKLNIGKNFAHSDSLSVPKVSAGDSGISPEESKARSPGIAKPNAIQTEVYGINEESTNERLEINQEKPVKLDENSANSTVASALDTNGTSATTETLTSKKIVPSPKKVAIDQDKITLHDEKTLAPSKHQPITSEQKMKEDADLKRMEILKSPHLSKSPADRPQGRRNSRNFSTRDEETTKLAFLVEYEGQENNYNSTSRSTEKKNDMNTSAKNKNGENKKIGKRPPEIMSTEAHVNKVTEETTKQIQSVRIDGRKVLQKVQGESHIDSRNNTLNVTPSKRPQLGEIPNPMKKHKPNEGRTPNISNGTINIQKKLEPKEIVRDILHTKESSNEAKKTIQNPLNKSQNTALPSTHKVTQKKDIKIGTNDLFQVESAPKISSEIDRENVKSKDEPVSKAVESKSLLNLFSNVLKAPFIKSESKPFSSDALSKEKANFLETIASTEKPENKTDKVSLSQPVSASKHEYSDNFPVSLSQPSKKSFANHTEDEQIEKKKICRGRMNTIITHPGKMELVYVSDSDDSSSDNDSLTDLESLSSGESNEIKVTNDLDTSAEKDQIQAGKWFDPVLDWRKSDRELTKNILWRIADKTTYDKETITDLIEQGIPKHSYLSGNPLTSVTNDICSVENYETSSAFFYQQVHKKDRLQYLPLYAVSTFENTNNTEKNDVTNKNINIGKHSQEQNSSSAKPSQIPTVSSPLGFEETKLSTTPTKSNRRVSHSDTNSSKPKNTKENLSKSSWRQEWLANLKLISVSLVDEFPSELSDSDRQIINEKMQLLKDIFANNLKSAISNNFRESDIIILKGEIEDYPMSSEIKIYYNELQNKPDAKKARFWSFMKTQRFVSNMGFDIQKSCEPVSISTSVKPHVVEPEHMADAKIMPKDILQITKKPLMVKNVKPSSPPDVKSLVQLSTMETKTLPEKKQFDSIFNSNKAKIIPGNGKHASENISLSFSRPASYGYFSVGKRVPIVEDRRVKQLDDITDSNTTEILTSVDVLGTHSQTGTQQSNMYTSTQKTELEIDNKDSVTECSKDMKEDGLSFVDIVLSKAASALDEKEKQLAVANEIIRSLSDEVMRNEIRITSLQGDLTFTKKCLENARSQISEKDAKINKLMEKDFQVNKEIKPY
UniProt P06700: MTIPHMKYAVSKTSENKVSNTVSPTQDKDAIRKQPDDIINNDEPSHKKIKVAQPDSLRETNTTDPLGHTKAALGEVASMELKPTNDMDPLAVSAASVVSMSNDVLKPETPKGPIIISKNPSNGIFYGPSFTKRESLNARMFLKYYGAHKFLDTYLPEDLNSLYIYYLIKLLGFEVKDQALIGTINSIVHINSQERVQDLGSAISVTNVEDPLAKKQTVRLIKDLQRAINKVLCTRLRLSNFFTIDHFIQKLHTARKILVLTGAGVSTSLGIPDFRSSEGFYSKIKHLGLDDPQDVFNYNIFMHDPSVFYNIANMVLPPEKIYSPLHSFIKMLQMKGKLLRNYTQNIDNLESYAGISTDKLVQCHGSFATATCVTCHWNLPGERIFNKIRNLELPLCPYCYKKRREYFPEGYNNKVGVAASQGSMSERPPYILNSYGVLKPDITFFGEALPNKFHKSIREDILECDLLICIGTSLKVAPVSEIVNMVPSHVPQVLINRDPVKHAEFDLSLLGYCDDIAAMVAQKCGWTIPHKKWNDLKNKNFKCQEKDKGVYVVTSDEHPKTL

Experiments:
[1] = molecular target: Sir4I1311N (S. cerevisiae) (UniProt P11978); assay: tandem affinity co-purification
[2] = molecular target: Sir4 (S. cerevisiae) (UniProt P11978); assay: tandem affinity co-purification

Sir2 (from UniProt P06700 1-562) (enzyme)
binding [1]: binds
binding [2]: binds
